Library screen at single concentrations

Results are given as percent effect.
How 0% and 100% were set is not recorded. Most values in the screen are low, and negative values occur.
The compounds are a random part of those screened.
Two or more numbers in one place are separate tests of the same structure; such repeats can differ widely.

Mtb cholesterol medium: 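Phenotypic screen: M. tuberculosis growth, cholesterol and DPPC medium, 4 days; the read-out is not stated. Concentration: 50 µM. Direction is inferred from retests: higher values go with more growth inhibition. Size under these conditions: about 69,000 compounds, about 370 of them at 50% or above in at least one test.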
Mtb glucose medium: 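Whole-cell growth test on Mycobacterium tuberculosis, read after 3 days in glucose-containing 7H9 medium; the read-out is not stated. Concentration: 50 µM. Direction is inferred from retests: higher values go with more growth inhibition. About 69,000 compounds were tested under these conditions; 1.1% (about 760) showed 50% or more at least once.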

Compound | Mtb cholesterol medium | Mtb glucose medium
O=C(NCc1ccnc(OCC2CC2)c1)C1COc2ccccc2O1 (stereo not drawn) | 11.85 | 1.946
CCCN(CCOC)c1nc(C)nc2sccc12 | 1.584 and -0.7701 | 3.76 and -2.006
O=C(O)C(F)(F)F.[H][C@@]12CCN(Cc3ccc(F)cc3)C[C@@]1([H])[C@H](C(=O)NCC1CC1)CCO2 | 4.994 | -2.359 and -16.67
Cc1ccc(NC2COC3(CCN(CC(C)C)CC3)C2)nn1.O=C(O)C(F)(F)F (stereo not drawn) | -4.997 | 9.063 and -2.002
COc1cc(C)nc(N2CCN(C(=O)CCc3cscn3)CC2)n1 | 13.08 | -6.134
CCC(NC(=O)CN(C)Cc1ccc(C)o1)c1ccc(C)cc1 (stereo not drawn) | -21.66 | -11.55
O=C(O)C(F)(F)F.O=C(O)C(F)(F)F.[H][C@@]12CN(CC3CC3)C[C@]1([H])[C@@H](OC)CCN2S(=O)(=O)c1cccnc1 | -7.02 and 18.94 | -5.39
O=C(CCN1CCCC(CO)(CC2CC2)C1)NCc1cccc(Cl)c1 (stereo not drawn) | 5.954 | 83.71 and 1.134
COCCNc1nnc(S(=O)(=O)CCC(C)(C)C#N)s1 | 2.775 | -8.76
CN1CCCC(CNS(=O)(=O)N2CCc3ccccc3C2)C1 (stereo not drawn) | 6.409 | 7.932
O=C(O)C(F)(F)F.O=C1CCCN1Cc1nnc2n1CCCN(Cc1ccco1)C2 | -6.657 | 14.89
CCNc1cc2c(nn1)CCN(C(=O)Cc1ccc3c(c1)CCO3)C2 | 18.5 | -0.9551
CCc1nc(C)c(CN2CCCC(c3nn(C)c(=O)n3CC)C2)[nH]1 (stereo not drawn) | -2.343 | -6.857 and -2.767
Cc1nn(C2CCCC2)c2nc(C(C)(C)CN3CCN(C)CC3)[nH]c12 | 12.86 | 71.49
Cc1noc(C)c1CN(Cc1ccccc1)C(C)CN1CCOCC1 (stereo not drawn) | -5.476 and -6.607 | -34.62 and -3.022
CSCC(C)NCc1ccc2[nH]c(C)c(C)c2c1 (stereo not drawn) | 8.054 | 28.6
O=C(O)C(F)(F)F.O=C(O)C(F)(F)F.O=S1(=O)c2ccccc2C2(CCN(Cc3cccnc3)C2)N1CC1CC1 (stereo not drawn) | -2.089 and 16.85 | 8.734
COc1cc2cc(C(=O)O)n(C)c2c(OC)c1OC | -0.09664 | -7.198
COc1ccc(NC(=O)CCC2CCCN(Cc3ncon3)C2)cc1Cl (stereo not drawn) | 13.95 | 25.51
Cc1ccc(CN2CCN(Cc3ccc(N(C)C)nc3)CC2=O)cc1C | 21.38 | 20.46
CCS(=O)(=O)N1CCC2(CCN(Cc3nccs3)CC2)CC1.O=C(O)C(F)(F)F | 9.391 | 16.38 and -7.544
OCC1CCCCN1Cc1nc(Cc2ccccc2)no1 (stereo not drawn) | 11.49 | 24.63
Cc1c(NCc2ccccc2C#N)cccc1S(=O)(=O)NC1CC1 | -26.53 | -24.12
CNc1ncccc1C(=O)N1CCCC2(CCN(C)CC2)CC1 | -8.575 | 10.72
CCOC(=O)N1CCN(Cc2ccc(OCc3nccn3C)cc2)CC1 | -9.847 | -12.8
O=C(C1CCOC1)N1CCC2(CCNCC2)C1 (stereo not drawn) | 10.5 | -9.792
Cc1cc(C[C@@H]2COC[C@H]2NCc2ccc(C(F)(F)F)cc2)on1.O=C(O)CC(O)(CC(=O)O)C(=O)O | 31.62 | 23.08
CCC1CNCc2cc3c(C)ccc(C)c3nc2O1 (stereo not drawn) | 32.41 and 35.81 | 27.63
Cc1cnn(CC2CN(Cc3ccc(-n4cccn4)cc3)CCO2)c1 (stereo not drawn) | 14.41 | 16.12
CN(C)CCOCc1cncc2c1CCN(C(=O)c1cscn1)C2 | -28.97 | 0.4554
Cc1cc(C)cc(OCC(=O)N2CCC2)c1 | 6.939 | 4.947
Cc1nn2cccnc2c1C(=O)NCc1ccccc1OCC1CC1 | 1.067 | 5.233 and 10.27
O=c1ccn([C@H]2CCN(Cc3ncc[nH]3)CC[C@@H]2O)c(=O)[nH]1 | -9.659 | 9.366
CN1CCC(C(=O)N2CCC(c3ccc4c(N)n[nH]c4n3)CC2)CC1 | -1.174 and -4.237 | -3.771
CCN1CCOC(CNCc2ccccc2OCC(=O)N(C)C)C1 (stereo not drawn) | 3.518 | 4.964
Cc1cc(C(F)(F)F)nn1CCCNC(=O)C1CCC1 | -2.322 | 1.935 and -0.4734
COc1ccc2cc(C3CN(C(=O)CN4CCCC4)CCO3)ccc2c1 (stereo not drawn) | -2.16 | 14.59
Cn1cc(CN2CCC(F)(F)C3(CCN(c4ncc(F)cn4)C3)C2)cn1.O=C(O)C(F)(F)F (stereo not drawn) | 14.29 | 7.546
Cc1ccc(C2CCCN(S(=O)(=O)N3CCOCC3)C2)nc1 (stereo not drawn) | 8.245 and -4.846 | -1.554
CC(=O)N1CCc2c(nc(N(C)C)nc2N(C)CC2CCCO2)C1 (stereo not drawn) | -10.29 and -7.713 | 33.58
COCCn1cncc1-c1nc2c([nH]1)CC(C)(C)CNC2=O | -8.893 | -18.86
CCn1ccnc1CN1CCCN(C(=O)c2cc(C)nn2CC)CC1 | -0.6109 | -13.21
O=C1N(Cc2cccc(F)c2F)CCCC1(O)CNCc1ccccn1 (stereo not drawn) | 21.88 | -3.268
O=C(CCn1cccn1)N1CC[C@@H](c2ccc3ccccc3c2)[C@H](O)C1 | -20.02 | 23.37 and 5.976
CC(C)c1nc2n(n1)CC(NCc1nc(-c3cccnc3)no1)CC2 (stereo not drawn) | 14.49 | -3.076
O=C(O)C(F)(F)F.O=C(O)C(F)(F)F.O=C(c1cccnc1)N1CCC2(CC1)COC(COc1ccccn1)C2 (stereo not drawn) | -4.944 | -14.85
[H][C@]12CN(Cc3ccc(F)cc3)C[C@@]1([H])OCCN(S(C)(=O)=O)C2 | 19.96 | -1.325 and -11.69
CCC1CN(C)c2ccccc2CN1C(=O)Nc1ccc(C)cc1 (stereo not drawn) | 9.207 | -7.549 and 8.458
O=C(O)C(F)(F)F.[H][C@@]12CN(CC(C)C)C[C@]1([H])C(=O)N(CC)C21CCN(S(C)(=O)=O)CC1 | -7.585 and 71.79 | 4.581 and -7.47
C=CNC(=O)c1nnc2ccc(N3CCOCC3)cc2n1 | -10.69 | 0.5472
CNS(=O)(=O)c1ccc(C(=O)N2CCCC2Cc2ccccc2)o1 (stereo not drawn) | -1.253 | 14.29
OCCn1cc(CN2CCN(CCOCC(F)(F)F)CC2)cn1 | -20.77 | -40.47
CN1C(=O)c2ccc(C(=O)N(Cc3cnn(C)c3)C3CC3)cc2C1=O | 3.472 | 5.946

6 of the entries, repeated:

Compound	Mtb cholesterol medium	Mtb glucose medium
COCCNc1nnc(S(=O)(=O)CCC(C)(C)C#N)s1	2.775	-8.76
Cc1cc(C(F)(F)F)nn1CCCNC(=O)C1CCC1	-2.322	1.935 and -0.4734
CC(C)c1nc2n(n1)CC(NCc1nc(-c3cccnc3)no1)CC2 (stereo not drawn)	14.49	-3.076
Cc1cc(C)cc(OCC(=O)N2CCC2)c1	6.939	4.947
O=C(O)C(F)(F)F.O=C1CCCN1Cc1nnc2n1CCCN(Cc1ccco1)C2	-6.657	14.89
COc1ccc2cc(C3CN(C(=O)CN4CCCC4)CCO3)ccc2c1 (stereo not drawn)	-2.16	14.59

Measurements from “University of Dundee, Small-Polar-MMV Screening Library” (2021), ChEMBL document CHEMBL3988442.